From US11571455B2, “Methods and compositions for treating alcoholic liver disease” (VANDERBILT UNIVERSITY, priority 2013, dated 2023)
At least one peptide structure holds a part that was inferred or is arguable (an end, a ring closure or a residue). Bridge positions count the residues as written; N and C are the ends. Peptide text beside a SMILES is read from it.

Test system: Con A-induced hepatitis in mice
Experiment: T cell-mediated hepatitis induced by concanavalin A (Con A)
Type: in vivo
Conditions: Con A injection

Q: With CSCC[C@@H]1NC(=O)[C@H](CC(C)C)NC(=O)[C@H](CCCCN)NC(=O)[C@H](CCC(N)=O)NC(=O)[C@H](CCCNC(=N)N)NC(=O)[C@H](CCCCN)NC(=O)[C@H](CCCNC(=N)N)NC(=O)[C@H](CCC(N)=O)NC(=O)[C@H](C(C)C)NC(=O)[C@H](Cc2ccc(O)cc2)NC(=O)[C@@H](NC(=O)[C@@H]2CCCN2C(=O)[C@H](C)NC(=O)[C@H](CC(C)C)NC(=O)[C@H](CC(C)C)NC(=O)[C@H](C)NC(=O)[C@H](CC(C)C)NC(=O)[C@H](CC(C)C)NC(=O)[C@@H](NC(=O)[C@H](C)NC(=O)[C@@H]2CCCN2C(=O)[C@H](CC(C)C)NC(=O)[C@H](CC(C)C)NC(=O)[C@H](C)NC(=O)[C@@H](NC(=O)[C@H](C)NC(=O)[C@H](C)N)C(C)C)C(C)C)CSSC[C@@H](C(=O)O)NC(=O)[C@@H]2CCCN2C1=O [cSN50] (H-AAVALLPAVLLALLAPCYVQRKRQKLMPC-OH; disulfide 17-29; N-terminus and C-terminus assumed) as the compound, how does the “Con A-evoked pathologic changes (cytokines/chemokines, granulocyte accumulation, apoptosis/necrosis of hepatocytes)” value read?
A: significantly attenuated
